# PubChem BioAssay AID1159584 | Peter MacCallum Cancer Centre – 2016
# Screen: 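Genes whose loss is lethal only together with E-cadherin loss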 (primary screen)
# System: human MCF10A breast epithelial cells, parental and CDH1-null
# Reagent: siRNA against human genes
# Detection: 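Cell viability by CellTiter-Glo ATP luminescence, each line scaled to the mean of mock wells across plates, then CDH1-null over parental ratio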
# Direction: CDH1-null / parental viability ratio: higher = CDH1-null cells survive relatively better than parental
# The deposit covers about 18,000 reagents; this is an unselected part. Not all columns of the deposit are shown. Not given: the amount of reagent, the time to read-out.
gene,CDH1-null / parental viability ratio
KISS1R (KISS1 receptor),1.53
NELL1 (neural EGFL like 1),0.96
TAF1A,1.14
UMOD (uromodulin),1.57
UNC119B (unc-119 lipid binding chaperone B),0.87
TBX3 (T-box transcription factor 3),1.03
GLRA3 (glycine receptor alpha 3),1.15
ZNF791 (zinc finger protein 791),1.01
A1BG (alpha-1-B glycoprotein),1.01
GDAP1L1,1.16
"SMO (smoothened, frizzled class receptor)",1.33
DPY19L3 (dpy-19 like C-mannosyltransferase 3),0.74
"NAA40 (N-alpha-acetyltransferase 40, NatD catalytic subunit)",0.73
ZFYVE26 (zinc finger FYVE-type containing 26),0.85
FUZ (fuzzy planar cell polarity protein),0.99
LCE2A (late cornified envelope 2A),0.85
"PLAU (plasminogen activator, urokinase)",1.18
CCR1 (C-C motif chemokine receptor 1),0.85
LILRB5 (leukocyte immunoglobulin like receptor B5),1.32
CD79A (CD79a molecule),1.31
ZNF208 (zinc finger protein 208),1.07
TNS2 (tensin 2),0.75
ME3 (malic enzyme 3),0.88
NCAPH (non-SMC condensin I complex subunit H),0.77
CLEC18C (C-type lectin domain family 18 member C),1.15
POLR1C (RNA polymerase I and III subunit C),0.88
FNDC11 (fibronectin type III domain containing 11),0.87
"PIP4P1 (phosphatidylinositol-4,5-bisphosphate 4-phosphatase 1)",1
ARG2 (arginase 2),1.09
KRTAP1-1 (keratin associated protein 1-1),0.93
SCRT2 (scratch family transcriptional repressor 2),0.95
MAK16 (MAK16 homolog),1.07
MPV17L (MPV17 mitochondrial inner membrane protein like),0.8
CEACAM4 (CEA cell adhesion molecule 4),0.94
PRY (PTPN13 like Y-linked),1.14
ZNF524 (zinc finger protein 524),0.95
IYD (iodotyrosine deiodinase),1.04
ROBO1 (roundabout guidance receptor 1),0.85

Next part; the last 7 above are carried over.
gene,CDH1-null / parental viability ratio
MAK16 (MAK16 homolog),1.07
MPV17L (MPV17 mitochondrial inner membrane protein like),0.8
CEACAM4 (CEA cell adhesion molecule 4),0.94
PRY (PTPN13 like Y-linked),1.14
ZNF524 (zinc finger protein 524),0.95
IYD (iodotyrosine deiodinase),1.04
ROBO1 (roundabout guidance receptor 1),0.85
FBXL4 (F-box and leucine rich repeat protein 4),0.86
POC1A (POC1 centriolar protein A),1.31
EFCAB14 (EF-hand calcium binding domain 14),0.91
MACO1 (macoilin 1),1.01
PLGLB2 (plasminogen like B2),1.11
ZMYM6 (zinc finger MYM-type containing 6),1.04
GOLGA4 (golgin A4),1.02
DAP (death associated protein),0.74
TMOD4 (tropomodulin 4),1.04
NUAK2 (NUAK family kinase 2),1.03
CCND2 (cyclin D2),0.72
ADAM21 (ADAM metallopeptidase domain 21),1.2
H2AC11 (H2A clustered histone 11),0.92
CD24 (CD24 molecule),1.08
LRRIQ1 (leucine rich repeats and IQ motif containing 1),0.91
MIS18BP1 (MIS18 binding protein 1),0.88
CDNF (cerebral dopamine neurotrophic factor),0.84
ATG4A (autophagy related 4A cysteine peptidase),1.22
OTOL1 (otolin 1),0.96
"FNTA (farnesyltransferase, CAAX box, subunit alpha)",1.25
NANS (N-acetylneuraminate synthase),0.88
SIRT1 (sirtuin 1),0.98
APOB (apolipoprotein B),0.76
"HLA-E (major histocompatibility complex, class I, E)",0.66
OSGIN1 (oxidative stress induced growth inhibitor 1),0.97
GNPDA2 (glucosamine-6-phosphate deaminase 2),0.88
KCNJ11 (potassium inwardly rectifying channel subfamily J member 11),1.27
MAGEB1 (MAGE family member B1),0.93
FSD2 (fibronectin type III and SPRY domain containing 2),0.63
PTK2 (protein tyrosine kinase 2),0.83
VPS13C (vacuolar protein sorting 13 homolog C),1.04
ZNRF3 (zinc and ring finger 3),0.98
DRC3 (dynein regulatory complex subunit 3),0.95
KLK6 (kallikrein related peptidase 6),1.08
FCGR3B (Fc gamma receptor IIIb),0.7
RAD9A (RAD9 checkpoint clamp component A),0.85
CXCR4 (C-X-C motif chemokine receptor 4),0.66
TBR1 (T-box brain transcription factor 1),0.99
RNF144B (ring finger protein 144B),0.76
PHKG1 (phosphorylase kinase catalytic subunit gamma 1),0.71
NEK2 (NIMA related kinase 2),0.99
CCBE1 (collagen and calcium binding EGF domains 1),1.03
DPYSL3 (dihydropyrimidinase like 3),1.11
NDUFA7 (NADH:ubiquinone oxidoreductase subunit A7),0.96
"LMAN2L (lectin, mannose binding 2 like)",0.98
ZNF704 (zinc finger protein 704),0.76
ANGPTL7 (angiopoietin like 7),0.82
EYA3 (EYA transcriptional coactivator and phosphatase 3),0.65
NT5DC3 (5'-nucleotidase domain containing 3),1.04
